# Test results as given in PMC9101030, “Myo5b Transports Fibronectin-Containing Vesicles and Facilitates FN1 Secretion from Human Pleural Mesothelial Cells” (International Journal of Molecular Sciences, 2022).
# Protein sequences, listed by entry. Tags and fused reporters are not part of them. Residues count along the entry.
# UniProt P02751, residues 32-2477: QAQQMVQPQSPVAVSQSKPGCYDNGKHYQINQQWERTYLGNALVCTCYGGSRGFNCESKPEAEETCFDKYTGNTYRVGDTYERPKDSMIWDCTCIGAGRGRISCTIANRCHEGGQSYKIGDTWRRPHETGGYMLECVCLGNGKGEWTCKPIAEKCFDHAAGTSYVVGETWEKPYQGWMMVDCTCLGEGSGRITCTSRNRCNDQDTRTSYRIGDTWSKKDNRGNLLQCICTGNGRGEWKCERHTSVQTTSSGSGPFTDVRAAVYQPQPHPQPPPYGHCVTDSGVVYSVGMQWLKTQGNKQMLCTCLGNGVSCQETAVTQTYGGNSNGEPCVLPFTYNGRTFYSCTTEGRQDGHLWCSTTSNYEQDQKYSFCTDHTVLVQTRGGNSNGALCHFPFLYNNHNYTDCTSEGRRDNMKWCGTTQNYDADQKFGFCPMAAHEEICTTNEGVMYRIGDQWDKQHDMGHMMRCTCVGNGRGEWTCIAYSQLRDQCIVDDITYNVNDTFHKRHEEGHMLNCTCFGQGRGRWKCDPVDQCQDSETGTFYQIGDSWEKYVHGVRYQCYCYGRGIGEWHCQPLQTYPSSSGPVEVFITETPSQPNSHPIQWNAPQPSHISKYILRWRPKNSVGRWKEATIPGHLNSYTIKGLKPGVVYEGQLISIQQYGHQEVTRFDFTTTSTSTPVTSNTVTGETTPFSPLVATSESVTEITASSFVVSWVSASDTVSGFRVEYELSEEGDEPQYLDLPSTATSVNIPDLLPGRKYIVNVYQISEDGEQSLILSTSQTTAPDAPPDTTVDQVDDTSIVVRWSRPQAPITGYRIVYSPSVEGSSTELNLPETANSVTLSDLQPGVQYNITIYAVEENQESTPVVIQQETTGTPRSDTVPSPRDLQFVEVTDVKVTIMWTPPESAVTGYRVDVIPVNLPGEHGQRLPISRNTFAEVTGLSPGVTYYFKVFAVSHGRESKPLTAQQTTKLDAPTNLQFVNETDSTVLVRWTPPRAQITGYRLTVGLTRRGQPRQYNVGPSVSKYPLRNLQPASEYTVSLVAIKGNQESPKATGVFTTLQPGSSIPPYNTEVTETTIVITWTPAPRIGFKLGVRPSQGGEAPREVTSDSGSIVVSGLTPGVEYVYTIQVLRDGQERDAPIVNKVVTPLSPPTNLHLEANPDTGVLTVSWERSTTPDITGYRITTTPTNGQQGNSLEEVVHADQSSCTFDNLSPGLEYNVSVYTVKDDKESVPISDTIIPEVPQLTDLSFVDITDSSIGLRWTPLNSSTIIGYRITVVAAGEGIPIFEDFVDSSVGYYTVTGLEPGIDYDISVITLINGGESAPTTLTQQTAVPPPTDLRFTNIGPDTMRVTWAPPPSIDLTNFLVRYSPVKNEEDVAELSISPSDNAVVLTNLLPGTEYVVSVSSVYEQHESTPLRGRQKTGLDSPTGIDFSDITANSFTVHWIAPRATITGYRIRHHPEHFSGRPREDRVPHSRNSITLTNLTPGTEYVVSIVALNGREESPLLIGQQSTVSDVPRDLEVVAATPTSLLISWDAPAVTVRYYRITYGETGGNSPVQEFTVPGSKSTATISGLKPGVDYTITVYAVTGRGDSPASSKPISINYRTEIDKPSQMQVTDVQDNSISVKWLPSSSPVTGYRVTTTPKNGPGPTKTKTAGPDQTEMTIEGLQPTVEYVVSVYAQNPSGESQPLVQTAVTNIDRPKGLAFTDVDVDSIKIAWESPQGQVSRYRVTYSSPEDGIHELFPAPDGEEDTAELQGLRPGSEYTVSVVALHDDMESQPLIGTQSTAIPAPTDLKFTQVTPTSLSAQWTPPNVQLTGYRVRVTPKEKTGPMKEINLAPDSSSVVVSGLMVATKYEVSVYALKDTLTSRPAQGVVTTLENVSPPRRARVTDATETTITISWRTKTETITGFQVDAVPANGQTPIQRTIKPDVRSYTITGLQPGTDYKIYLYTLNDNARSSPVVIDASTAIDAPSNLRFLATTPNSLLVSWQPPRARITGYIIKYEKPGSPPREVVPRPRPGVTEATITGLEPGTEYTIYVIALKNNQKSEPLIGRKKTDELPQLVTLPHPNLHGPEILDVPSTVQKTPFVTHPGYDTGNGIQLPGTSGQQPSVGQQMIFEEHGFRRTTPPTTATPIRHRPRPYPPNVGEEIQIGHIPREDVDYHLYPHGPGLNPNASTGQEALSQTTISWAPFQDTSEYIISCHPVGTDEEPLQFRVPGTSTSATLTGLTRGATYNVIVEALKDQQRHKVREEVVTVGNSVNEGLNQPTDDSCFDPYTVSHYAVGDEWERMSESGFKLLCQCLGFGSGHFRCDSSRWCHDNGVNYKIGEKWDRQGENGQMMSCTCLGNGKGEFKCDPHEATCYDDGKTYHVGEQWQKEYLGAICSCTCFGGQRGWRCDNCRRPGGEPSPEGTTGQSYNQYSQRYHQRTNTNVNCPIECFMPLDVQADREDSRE
# UniProt Q9ULV0: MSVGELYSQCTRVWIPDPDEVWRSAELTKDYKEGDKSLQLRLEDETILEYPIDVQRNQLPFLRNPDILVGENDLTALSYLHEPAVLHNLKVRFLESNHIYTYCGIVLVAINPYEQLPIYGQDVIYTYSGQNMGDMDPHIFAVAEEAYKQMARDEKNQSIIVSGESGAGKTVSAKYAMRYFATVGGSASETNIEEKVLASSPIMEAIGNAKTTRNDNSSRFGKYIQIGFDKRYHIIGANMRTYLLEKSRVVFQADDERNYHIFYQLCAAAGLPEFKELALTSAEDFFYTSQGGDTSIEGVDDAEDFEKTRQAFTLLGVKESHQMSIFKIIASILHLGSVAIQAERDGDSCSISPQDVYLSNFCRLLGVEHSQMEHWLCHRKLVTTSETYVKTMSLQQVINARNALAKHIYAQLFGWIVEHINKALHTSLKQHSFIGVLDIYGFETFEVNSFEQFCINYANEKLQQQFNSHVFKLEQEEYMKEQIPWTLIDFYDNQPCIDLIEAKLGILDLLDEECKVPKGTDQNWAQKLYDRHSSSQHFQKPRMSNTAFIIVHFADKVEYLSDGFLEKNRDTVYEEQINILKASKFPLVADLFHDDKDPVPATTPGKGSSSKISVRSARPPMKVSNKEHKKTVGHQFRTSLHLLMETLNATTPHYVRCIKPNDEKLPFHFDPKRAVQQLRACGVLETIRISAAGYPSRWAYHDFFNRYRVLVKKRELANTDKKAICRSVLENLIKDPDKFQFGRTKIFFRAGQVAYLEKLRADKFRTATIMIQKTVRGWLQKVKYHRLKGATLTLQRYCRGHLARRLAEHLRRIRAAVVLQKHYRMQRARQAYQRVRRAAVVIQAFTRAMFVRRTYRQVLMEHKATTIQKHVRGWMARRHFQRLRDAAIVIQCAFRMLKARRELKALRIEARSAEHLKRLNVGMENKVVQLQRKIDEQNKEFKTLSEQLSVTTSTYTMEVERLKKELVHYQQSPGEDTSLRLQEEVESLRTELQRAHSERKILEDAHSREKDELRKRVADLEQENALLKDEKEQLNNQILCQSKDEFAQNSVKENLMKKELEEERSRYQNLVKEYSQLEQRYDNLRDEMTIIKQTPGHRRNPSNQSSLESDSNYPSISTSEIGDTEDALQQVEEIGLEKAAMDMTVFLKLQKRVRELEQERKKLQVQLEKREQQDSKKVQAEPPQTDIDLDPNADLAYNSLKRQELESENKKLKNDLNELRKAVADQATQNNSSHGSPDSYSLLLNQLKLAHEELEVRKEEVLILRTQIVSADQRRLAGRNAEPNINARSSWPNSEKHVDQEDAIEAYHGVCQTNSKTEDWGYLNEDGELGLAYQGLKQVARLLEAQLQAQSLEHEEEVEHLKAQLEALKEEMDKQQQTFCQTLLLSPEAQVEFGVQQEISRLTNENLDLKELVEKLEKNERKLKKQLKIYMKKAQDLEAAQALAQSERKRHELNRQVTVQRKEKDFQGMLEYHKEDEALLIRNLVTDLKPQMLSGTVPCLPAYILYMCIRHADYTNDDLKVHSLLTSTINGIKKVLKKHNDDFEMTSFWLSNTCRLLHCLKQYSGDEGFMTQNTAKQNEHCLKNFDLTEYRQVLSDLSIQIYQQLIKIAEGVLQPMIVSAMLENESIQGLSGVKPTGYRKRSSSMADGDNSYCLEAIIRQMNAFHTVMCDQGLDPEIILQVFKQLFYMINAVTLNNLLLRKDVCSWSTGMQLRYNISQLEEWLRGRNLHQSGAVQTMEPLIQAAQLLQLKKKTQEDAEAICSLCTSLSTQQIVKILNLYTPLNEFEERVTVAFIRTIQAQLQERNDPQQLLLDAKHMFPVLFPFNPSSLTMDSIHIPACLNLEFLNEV
# These are yes or no findings as the source states them, for the method shown. In cells and extracts the contact can be indirect. Some entries that bind do so weakly or less than the wild type.
# Target: fibronectin (FN1), endogenous in human pleural mesothelial cells (human (endogenous in HPMCs)) (UniProt P02751)
# Assay: proximity ligation; Duolink In situ Red kit on fixed, permeabilised HPMCs treated with PBS or TGF-β (5 ng/mL); primary antibodies to the two proteins or to the V5 tag, anti-mouse MINUS and anti-rabbit PLUS probes; confocal imaging
substance,measurement,value
"myosin 5b (Myo5b), endogenous in human pleural mesothelial cells (from UniProt Q9ULV0 1-1848)",binding,binds
